At least one compound was matched to its structure with a doubt left.
Test system: cough reaction to stimulation of the upper laryngeal nerves
Assay: Anti-tussive activity: Domenjoz method (stimulation of upper laryngeal nerves)
Assay type: in vivo, cat
Details: cats, intravenous, 1 to 2 mg./kg.
Experimental: The products tested are dissolved in a […] sodium chloride solution or, if they are insoluble in this solution, suspended using "Tween 80" (for oral and intraperitoneal administration) or dissolved in polyethylene glycol 300 (for intravenous administration).
Cats are anaesthetised by intraperitoneal injection of 30 mg./kg. of sodium mebubarbital. The arterial pressure is measured on the femoral artery by a Statham P 23 Db gauge. A tracheotomy is carried out; a Y-shaped cannula allows a part of the air breathed out to be branched off onto a Statham PM 6 gauge; the cardiac rhythm is measured by integration of the QRS complexes of the electrocardiogram. All these measurements are amplified and recorded on a Beckman Dynograph. The two upper laryngeal nerves are very carefully dissected and stimulated for 10 seconds by a surging current generated by a Hugo Sachs Stimulator I: voltage 3 volts, duration […], frequency 50 cycles/second. The test products are injected into the femoral vein. The first stimulation takes place 5 minutes after administration of the product and then every 5 minutes until the reaction returns to the initial amplitude. Each nerve is stimulated in turn (left-hand nerve: 5, 15, 25 minutes etc; right-hand nerve 10, […] minutes etc. after treatment).
+ marked diminution of cough
++ suppression of cough for 5 to 15 minutes […]

COc1ccc2c3c1O[C@H]1[C@@H](O)C=C[C@H]4[C@@H](C2)N(C)CC[C@@]341 [codeine phosphate, reference compound]
inhibition of the reaction to the stimulation: reversibly inhibits the reaction to the stimulation
